Structures can show the parent of a compound that is named as a salt. Where two headings read alike, the source gives them in different places. About 95 (3%) of roughly 3,300 compounds showed an effect of 50% or more. The list shows a part of the results.
Tested on: HCoV-229E
Parameters: species or system Huh-7; HTS, protection from HCoV-229E induced cell death, luminescent cell viability (CellCounting-Lite 2.0), inhibition rate
Conditions: 24 h post infection, 1 h compound pre-incubation, 10 µM, inhibitor

Row | Compound | 229E Inhibition rate | 229E Inhibition rate (229E Inhibition rate, 24 h)
1 | O=C(/C=C/C=C/c1ccc2c(c1)OCO2)N1CCCCC1 [Piperine] | 13.7% | –
2 | C[C@@H]1O[C@@H](OC[C@H]2O[C@@H](Oc3c(-c4ccc(O)cc4)oc4cc(O)cc(O)c4c3=O)[C@H](O)[C@@H](O)[C@@H]2O)[C@H](O)[C@H](O)[C@H]1O [Nicotiflorin] | 40% | –
3 | O=c1c2ccccc2nc2n1CCc1c-2[nH]c2ccccc12 [Rutaecarpine] | 28% | –
4 | C[C@H]1[C@H](C)CC[C@]2(C(=O)O)CC[C@]3(C)C(=CC[C@@H]4[C@@]5(C)CC[C@@H](O)C(C)(C)[C@@H]5CC[C@]43C)[C@H]12 [3-Epiursolic Acid] | 7.8% | –
5 | COc1cc(/C=C/c2cc(O)cc(O)c2)ccc1O [Isorhapontigenin] | 0% | –
6 | O=C(O)CCCCC1CCSS1 (stereo not drawn) [α-Lipoic Acid] | 10.7% | –
7 | CC(C)=CCC/C(C)=C/CC/C(C)=C/CC/C(C)=C/CO [Geranylgeraniol] | 25.5% | –
8 | N=C(N)NCCCCN [Agmatine (sulfate)] | 16.1% | –
9 | C[C@H](C[C@H](O)[C@H]1OC1(C)C)C1=C2C[C@H](O)[C@H]3[C@@]4(C)CCC(=O)C(C)(C)[C@@H]4CC[C@]3(C)[C@@]2(C)CC1 [Alisol B] | 18.2% | –
10 | C=C(C)[C@@H]1CC=C(C=O)CC1 [L-Perillaldehyde] | 0% | –
11 | C=C1C(=O)O[C@H]2C1CC[C@@](C)(O)C13C=CC(C)(C21)C1(C3)C(=O)O[C@@H]2C3C(C)=CCC3[C@](C)(O)[C@H](OC(C)=O)CC21 (some centres unmarked) [Handelin] | 0% | –
12 | COc1cc(/C=C/c2ccc(OC)c(OC)c2)oc(=O)c1 [11-Methoxyyangonin] | 18.3% | –
13 | COc1cc2c(cc1O)C[C@H]1c3cc(O)c(OC)cc3CC[N+]1(C)C2 (some centres unmarked) [Phellodendrine (chloride)] | 41.3% | –
14 | CCCCCCCCCCCCCCCCCCCCCCCC(=O)OC [Methyl tetracosanoate] | 11.5% | –
15 | CC(=O)O[C@H]1C[C@H]2CC[C@]1(C)C2(C)C [Bornyl acetate] | 0% | –
16 | CCCCCCCCCCCCCCCCCCCCCCC(=O)O [Tricosanoic acid] | 43.7% | –
17 | COc1ccc2c(C)c3[n+](cc2c1OC)CCc1cc2c(cc1-3)OCO2 [13-Methylberberine (chloride)] | 18.9% | –
18 | CC(=O)O[C@H]1C[C@@]2(C)[C@@H](C[C@@H](O)[C@H]3[C@@]4(C)CC[C@@H](O)[C@@H](C)[C@@H]4CC[C@@]32C)/C1=C(\CCC=C(C)C)C(=O)O [Fusidic acid (sodium salt)] | – | 24.6%
19 | C=C[C@@H]1CNC(=S)O1 [Epigoitrin] | 34.1% | –
20 | Cc1ccc(C=O)o1 [5-Methylfurfural] | 6.8% | –
21 | C[S+]([O-])CCCC/C(=N\OS(=O)(=O)O)S[C@@H]1O[C@H](CO)[C@@H](O)[C@H](O)[C@H]1O (some centres unmarked) [Glucoraphanin] | 11.2% | –

Fetched by structure from above (2):
Row | Compound | 229E Inhibition rate | 229E Inhibition rate (229E Inhibition rate, 24 h)
15 | CC(=O)O[C@H]1C[C@H]2CC[C@]1(C)C2(C)C [Bornyl acetate] | 0% | –
6 | O=C(O)CCCCC1CCSS1 (stereo not drawn) [α-Lipoic Acid] | 10.7% | –

Remaining list, next part:

Row | Compound | 229E Inhibition rate | 229E Inhibition rate (229E Inhibition rate, 24 h)
22 | CCCCCCCCCC(C)=O [2-Undecanone] | 19.4% | –
23 | CCCCCCCCCCCCCCCCC(=O)O [Heptadecanoic acid] | 7.8% | –
24 | COC(=O)/C=C/c1ccc(O)c(OC)c1 [Ferulic acid methyl ester] | 10.1% | –
25 | OC[C@H]1O[C@@](CO)(OC[C@@]2(OC[C@@]3(O[C@H]4O[C@H](CO)[C@@H](O)[C@H](O)[C@H]4O)O[C@H](CO)[C@@H](O)[C@@H]3O)O[C@H](CO)[C@@H](O)[C@@H]2O)[C@@H](O)[C@@H]1O [Nystose] | 0% | –
26 | C1CCN2C[C@H]3C[C@H](CN4CCCC[C@@H]34)[C@H]2C1 [(+)-Sparteine] | – | 16.6%
27 | C[C@@H]1CC[C@]2(C(=O)O)CC[C@]3(C)C(=CC[C@@H]4[C@@]5(C)C[C@@H](O)[C@H](O)C(C)(C)[C@@H]5CC[C@]43C)[C@@H]2[C@]1(C)O [Tormentic acid] | 16.1% | –
28 | Nc1ncnc2c1ncn2[C@@H]1C[C@H](CO)[C@@H](O)[C@H]1O [Aristeromycin] | 57.5% | –
29 | OC[C@H]1O[C@H](O[C@H]2[C@H](O)[C@@H](O)[C@H](O)O[C@@H]2CO)[C@H](O)[C@@H](O)[C@@H]1O [Maltose monohydrate] | – | 10%
30 | CC(CN)C(=O)O (centres unmarked) [3-Amino-2-methylpropanoic acid] | 11.3% | –
31 | CC(O)[C@H](C)[C@H](N)C(=O)O (some centres unmarked) [4-Hydroxyisoleucine] | 38% | –
32 | CC1=C2C(=O)O[C@@H](c3ccoc3)[C@]2(C)CCC1 [Fraxinellone] | 13.5% | –
33 | CC(C)[C@@H](C)/C=C/[C@@H](C)[C@H]1CC[C@H]2C3=CC=C4C[C@@H](O)CC[C@@]4(C)[C@@H]3CC[C@]12C [Lumisterol] | 3.7% | –
34 | COc1cc(-c2oc3cc(O)cc(O)c3c(=O)c2O[C@@H]2O[C@H](CO)[C@@H](O)[C@H](O)[C@H]2O)ccc1O [Isorhamnetin-3-O-glucoside] | 11.3% | –
35 | CCC/C=C1/OC(=O)c2ccccc21 [3-Butylidenephthalide] | 14.3% | –
36 | CCOC(=O)c1ccc(O)c(O)c1 [Ethyl 3,4-dihydroxybenzoate] | 26.5% | –
37 | CN1c2c([nH]c(N)nc2=O)NC[C@@H]1CNc1ccc(C(=O)N[C@@H](CCC(=O)O)C(=O)O)cc1 [Levomefolic acid] | 12.5% | –
38 | O=c1cc(-c2ccc(O)cc2)oc2cc(O)ccc12 [7,4'-Dihydroxyflavone] | 13.2% | –
39 | CC(C)=CCC[C@](C)(O)[C@H]1CC[C@]2(C)[C@@H]1[C@H](O)C[C@@H]1[C@@]3(C)CC[C@H](O)C(C)(C)[C@@H]3[C@@H](O[C@@H]3O[C@H](CO)[C@@H](O)[C@H](O)[C@H]3O[C@@H]3O[C@H](CO)[C@@H](O)[C@H](O)[C@H]3O)C[C@]12C [Ginsenoside Rf] | 28.3% | –
40 | O[C@@H]1CCCC[C@H]1O (relative stereo) [trans-Cyclohexane-1,2-diol] | 11.9% | –
41 | CCCCCCCCCCCCCC(=O)O [Myristic acid] | 13.4% | –
